Our source for the IC50 values is ChEMBL document CHEMBL3392999 (J Med Chem, 2014).

SMILES strings stand for the structures. pIC50: −log10 of the molar value.

For this assay, the system named is A2780. In words: Cytotoxicity against human A2780 cells after 24 hrs by MTT assay. The class given is functional, cell-based. The settings on record: A2780, 24 h. Summed up:
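Ovarian carcinoma A2780 and its P-glycoprotein-overexpressing MDR subline A2780AD were cultured in RPMI 1640 with 10% FCS, glutamine, antibiotics and 0.25 units/mL bovine insulin. Cytotoxicity was measured by a modified MTT assay. IC50 is 50% growth inhibition, averaged over three measurements. The resistance factor is A2780AD IC50 divided by A2780 IC50.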
(In general: Tetrazolium dyes change colour on reduction, which living cells bring about.)

Compound `COc1cc2c(c(OC)c1OC)-c1ccc(OC)c(=O)cc1[C@@H](NC(C)=O)CC2` [COLCHICINE] had a pIC50 of 7.82.

A word on the pIC50: it is −log10 of the IC50, conventionally taken in molar units. Low values mean a large IC50, high ones a small IC50.
